Reference: publication PMC4806981
These are yes or no findings as the source states them, for the method shown. In cells and extracts the contact can be indirect. Some binding calls cover weakened binding; strength is not graded here. Tags and fused reporters may be left off the sequences shown.

Legend:
[1] = biological target: T1, FLAG-tagged fibrillarin (FBL), human (human) (UniProt P22087); assay: co-IP
T1 sequence: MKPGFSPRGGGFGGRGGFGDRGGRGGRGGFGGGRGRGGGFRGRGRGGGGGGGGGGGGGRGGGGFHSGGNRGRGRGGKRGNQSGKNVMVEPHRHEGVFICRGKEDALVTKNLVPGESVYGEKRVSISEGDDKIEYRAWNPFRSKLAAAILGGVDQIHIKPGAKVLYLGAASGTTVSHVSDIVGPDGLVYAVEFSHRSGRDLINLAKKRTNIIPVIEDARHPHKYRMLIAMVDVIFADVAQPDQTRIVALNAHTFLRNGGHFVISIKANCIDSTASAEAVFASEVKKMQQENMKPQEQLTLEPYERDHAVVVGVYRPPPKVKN

[2] = biological target: myc-tagged Hendra virus matrix protein (HeV-M) (Hendra virus) (UniProt O89341); assay: co-IP

myc-tagged Hendra virus matrix protein (HeV-M) (from UniProt O89341 1-352)
binding [1]: binds

B1: FLAG-tagged fibrillarin (FBL), human (enzyme, UniProt P22087 1-321)
chain: MKPGFSPRGGGFGGRGGFGDRGGRGGRGGFGGGRGRGGGFRGRGRGGGGGGGGGGGGGRGGGGFHSGGNRGRGRGGKRGNQSGKNVMVEPHRHEGVFICRGKEDALVTKNLVPGESVYGEKRVSISEGDDKIEYRAWNPFRSKLAAAILGGVDQIHIKPGAKVLYLGAASGTTVSHVSDIVGPDGLVYAVEFSHRSGRDLINLAKKRTNIIPVIEDARHPHKYRMLIAMVDVIFADVAQPDQTRIVALNAHTFLRNGGHFVISIKANCIDSTASAEAVFASEVKKMQQENMKPQEQLTLEPYERDHAVVVGVYRPPPKVKN
binding [2]: binds
